Results are given in words; binding and its absence hold for the method and conditions named. Binding seen in cells or lysates may run through a third protein. Some entries that bind do so weakly or less than the wild type. For part of these data: Sequences can lack the tags named with a protein. One block for each binder: values may come before it.
Key:
[1] = target: T1, HA-tagged DCST1 (Dcst1-3xHA transgene) (mouse) (UniProt Q059Y8); assay: co-IP; TGC (1 mg) and sperm (95~105 μg) protein extracts of Ctrl, Dcst1;Tg and Dcst2;Tg males in Pierce IP lysis buffer; anti-HA antibody coated Dynabeads Protein G, 1 h at 4 °C; wash 50 mM Tris-HCl (pH7.5), 150 mM NaCl, 0.1% Triton X-100, 10% glycerol; western blot for IZUMO1
T1 sequence: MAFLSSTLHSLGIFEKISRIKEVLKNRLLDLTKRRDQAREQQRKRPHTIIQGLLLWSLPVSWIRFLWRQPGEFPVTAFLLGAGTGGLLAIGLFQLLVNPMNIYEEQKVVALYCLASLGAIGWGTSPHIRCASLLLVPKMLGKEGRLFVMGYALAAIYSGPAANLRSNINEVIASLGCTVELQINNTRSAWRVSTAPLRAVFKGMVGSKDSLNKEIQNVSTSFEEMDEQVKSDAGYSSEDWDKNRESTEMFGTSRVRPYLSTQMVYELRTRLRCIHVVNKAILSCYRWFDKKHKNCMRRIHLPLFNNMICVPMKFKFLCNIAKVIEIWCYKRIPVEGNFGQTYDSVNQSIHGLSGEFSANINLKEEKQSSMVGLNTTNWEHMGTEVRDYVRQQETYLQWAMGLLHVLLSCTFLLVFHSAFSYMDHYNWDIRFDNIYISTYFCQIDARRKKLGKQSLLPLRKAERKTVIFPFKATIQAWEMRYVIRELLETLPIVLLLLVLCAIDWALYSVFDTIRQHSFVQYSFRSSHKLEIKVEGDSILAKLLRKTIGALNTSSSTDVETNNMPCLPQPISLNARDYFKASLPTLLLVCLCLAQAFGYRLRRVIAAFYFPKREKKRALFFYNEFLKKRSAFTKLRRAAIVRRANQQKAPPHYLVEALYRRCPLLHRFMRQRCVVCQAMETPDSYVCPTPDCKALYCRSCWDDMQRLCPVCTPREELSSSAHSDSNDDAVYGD

[2] = target: HA-tagged DCST2 (Dcst2-3xHA transgene) (mouse); assay: as above
[3] = target: HA-tagged DCST2 (Dcst2-3xHA, HEK293T) (mouse); assay: co-IP; lysate (200 μg, 1% Triton-X 100 lysis buffer) of HEK293T cells overexpressing Dcst1-3xFLAG and Dcst2-3xHA; anti-HA antibody coated Dynabeads Protein G, 1 h at 4 °C; wash 50 mM Tris-HCl (pH7.5), 150 mM NaCl, 0.1% Triton X-100, 10% glycerol; western blot for FLAG

binding [1]: no binding
binding [2]: no binding
B1: IZUMO1 (protein, UniProt Q9D9J7 22-397)
chain: CIKCDQFVTDALKTFENTYLNDHLPHDIHKNVMRMVNHEVSSFGVVTSAEDSYLGAVDENTLEQATWSFLKDLKRITDSDLKGELFIKELLWMLRHQKDIFNNLARQFQKEVLCPNKCGVMSQTLIWCLKCEKQLHICRKSLDCGERHIEVHRSEDLVLDCLLSWHRASKGLTDYSFYRVWENSSETLIAKGKEPYLTKSMVGPEDAGNYRCVLDTINQGHATVIRYDVTVLPPKHSEENQPPNIITQEEHETPVHVTPQTPPGQEPESELYPELHPELYPELIPTVAQNPEKKMKTRLLILLTLGFVVLVASIIISVLHFRKVSAKLKNASDEVKPTASGSKSDQSLSQQMGLKKASQADFNSDYSGDKSEATEN

binding [3]: binds
B2: FLAG-tagged DCST1 (Dcst1-3xFLAG) (protein, UniProt Q059Y8 1-732)
chain: T1 sequence

— paper PMC8989947
